Source: ChEMBL document CHEMBL3988442, “University of Dundee, Small-Polar-MMV Screening Library” (2021).

Chains of the proteins cited; added tags and fusions are not shown. Residues count along the entry.
UniProt P9WPC5, whole entry: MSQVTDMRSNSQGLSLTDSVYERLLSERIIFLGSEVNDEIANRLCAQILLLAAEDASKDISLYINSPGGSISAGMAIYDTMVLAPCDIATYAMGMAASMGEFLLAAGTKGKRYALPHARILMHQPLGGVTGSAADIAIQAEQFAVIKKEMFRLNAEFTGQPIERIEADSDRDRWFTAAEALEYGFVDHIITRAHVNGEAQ
UniProt P9WPC3, whole entry partner: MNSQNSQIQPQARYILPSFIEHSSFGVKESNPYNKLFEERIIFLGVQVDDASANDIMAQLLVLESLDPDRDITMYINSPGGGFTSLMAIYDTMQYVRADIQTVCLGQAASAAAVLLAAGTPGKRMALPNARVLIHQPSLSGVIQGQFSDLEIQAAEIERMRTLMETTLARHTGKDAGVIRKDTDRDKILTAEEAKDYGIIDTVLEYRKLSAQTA
UniProt I6X8D2, whole entry: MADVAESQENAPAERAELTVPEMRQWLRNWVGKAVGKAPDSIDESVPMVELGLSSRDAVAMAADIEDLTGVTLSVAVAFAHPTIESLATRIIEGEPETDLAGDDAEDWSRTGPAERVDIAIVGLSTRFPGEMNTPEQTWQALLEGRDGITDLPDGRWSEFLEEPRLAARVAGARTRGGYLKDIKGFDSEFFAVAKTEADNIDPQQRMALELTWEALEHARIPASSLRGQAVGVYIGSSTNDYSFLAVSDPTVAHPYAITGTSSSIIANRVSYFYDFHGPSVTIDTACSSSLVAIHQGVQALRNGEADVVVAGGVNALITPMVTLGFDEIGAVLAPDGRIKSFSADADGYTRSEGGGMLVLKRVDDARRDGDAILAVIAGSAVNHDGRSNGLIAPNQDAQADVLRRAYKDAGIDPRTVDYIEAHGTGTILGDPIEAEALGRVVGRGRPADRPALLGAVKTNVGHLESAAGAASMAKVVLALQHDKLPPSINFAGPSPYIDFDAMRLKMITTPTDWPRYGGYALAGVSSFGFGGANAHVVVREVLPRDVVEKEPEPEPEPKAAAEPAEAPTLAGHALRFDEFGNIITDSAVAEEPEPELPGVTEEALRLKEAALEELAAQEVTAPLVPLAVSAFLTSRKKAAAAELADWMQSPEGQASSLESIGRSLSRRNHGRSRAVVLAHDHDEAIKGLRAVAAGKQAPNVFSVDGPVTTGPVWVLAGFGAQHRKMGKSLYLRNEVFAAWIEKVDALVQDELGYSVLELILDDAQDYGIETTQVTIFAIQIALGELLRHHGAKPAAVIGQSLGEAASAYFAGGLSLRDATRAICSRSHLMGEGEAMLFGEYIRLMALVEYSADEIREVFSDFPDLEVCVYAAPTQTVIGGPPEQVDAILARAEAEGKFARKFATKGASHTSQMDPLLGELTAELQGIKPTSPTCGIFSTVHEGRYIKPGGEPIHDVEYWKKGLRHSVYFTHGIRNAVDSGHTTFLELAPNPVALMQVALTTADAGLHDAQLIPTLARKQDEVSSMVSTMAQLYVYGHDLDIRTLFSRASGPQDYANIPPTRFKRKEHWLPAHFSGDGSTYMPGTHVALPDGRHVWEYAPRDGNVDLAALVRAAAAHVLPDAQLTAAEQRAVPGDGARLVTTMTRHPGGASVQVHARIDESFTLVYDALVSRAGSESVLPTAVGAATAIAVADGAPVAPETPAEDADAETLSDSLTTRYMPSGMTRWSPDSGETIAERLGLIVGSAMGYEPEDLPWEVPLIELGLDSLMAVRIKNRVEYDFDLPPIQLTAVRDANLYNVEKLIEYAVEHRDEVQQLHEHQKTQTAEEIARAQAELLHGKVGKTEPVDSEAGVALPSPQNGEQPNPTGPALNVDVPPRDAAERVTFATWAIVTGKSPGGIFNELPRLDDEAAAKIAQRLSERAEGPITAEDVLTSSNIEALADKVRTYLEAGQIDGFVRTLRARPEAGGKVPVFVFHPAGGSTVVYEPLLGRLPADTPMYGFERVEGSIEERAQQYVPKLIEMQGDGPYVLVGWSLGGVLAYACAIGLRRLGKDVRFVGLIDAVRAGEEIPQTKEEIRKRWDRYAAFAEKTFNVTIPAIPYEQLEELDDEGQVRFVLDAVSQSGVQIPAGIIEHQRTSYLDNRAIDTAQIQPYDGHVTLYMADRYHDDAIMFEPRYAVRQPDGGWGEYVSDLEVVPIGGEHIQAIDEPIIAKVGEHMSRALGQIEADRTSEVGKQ
UniProt Q8IDJ8, 1-583: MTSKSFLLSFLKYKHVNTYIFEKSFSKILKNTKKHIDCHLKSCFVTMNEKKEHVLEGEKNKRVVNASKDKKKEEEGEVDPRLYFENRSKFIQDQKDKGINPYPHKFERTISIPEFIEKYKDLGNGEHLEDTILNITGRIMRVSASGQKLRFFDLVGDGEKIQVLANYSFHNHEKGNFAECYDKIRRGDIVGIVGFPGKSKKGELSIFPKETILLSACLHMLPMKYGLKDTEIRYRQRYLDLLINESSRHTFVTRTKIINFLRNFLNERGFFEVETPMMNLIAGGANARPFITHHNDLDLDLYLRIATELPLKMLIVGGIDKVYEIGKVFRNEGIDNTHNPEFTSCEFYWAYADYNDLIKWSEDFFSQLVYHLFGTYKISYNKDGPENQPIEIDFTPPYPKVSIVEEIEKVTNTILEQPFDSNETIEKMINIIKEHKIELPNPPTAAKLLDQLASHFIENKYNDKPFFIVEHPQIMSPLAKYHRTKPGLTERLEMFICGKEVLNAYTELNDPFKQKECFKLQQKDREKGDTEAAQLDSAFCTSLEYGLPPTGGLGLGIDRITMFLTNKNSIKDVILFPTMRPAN

ClpP1P2: 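ClpP1P2, Mycobacterium tuberculosis (UniProt P9WPC5 and UniProt P9WPC3). Protease assay of ClpP1P2, read by the AMC dye that it sets free. Compounds at 50 µM. Direction is inferred from only a few compounds that gave an IC50; most scored high, so higher reads as stronger inhibition. Most other retested compounds had strongly negative values. Of about 69,000 compounds tested this way, about 10 (0.015%) reached 50% or more in at least one test.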
Leishmania in macrophages: 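Cell assay of Leishmania donovani living inside macrophages; the read-out is not stated. Concentration: 30 µM. The record gives no direction; compounds that gave an IC50 in retests scored well above the rest, so higher reads as stronger inhibition. Size under these conditions: about 69,000 compounds, about 1,000 of them at 50% or above in at least one test.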
Pks13 thioesterase: 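Polyketide synthase Pks13, Mycobacterium tuberculosis (UniProt I6X8D2). Enzyme assay of the thioesterase domain of polyketide synthase 13; the read-out is not stated. Concentration: 30 µM. The record gives no direction; the compounds picked for IC50 retests had high values, so higher reads as stronger inhibition. Of about 67,000 compounds tested this way, about 300 (0.46%) reached 50% or more in at least one test.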
PfKRS1: 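Enzyme assay of the cytosolic lysyl-tRNA synthetase in 384-well plates, read by luminescence. Target: Lysine-tRNA ligase, Plasmodium falciparum 3D7 (UniProt Q8IDJ8). Compounds at 30 µM. Direction is inferred from only a few compounds that gave an IC50; most scored high, so higher reads as stronger inhibition. About 69,000 compounds were tested under these conditions; 0.071% (about 49) showed 50% or more at least once.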
Toxoplasma: 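Assay of Toxoplasma gondii numbers, read through their beta-galactosidase reporter with a colour substrate. Compounds at 10 µM. The record gives no direction; the compounds picked for IC50 retests had high values, so higher reads as fewer parasites. Size under these conditions: about 67,000 compounds, about 260 of them at 50% or above in at least one test.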

Results are given as percent effect. The record does not define 0% and 100%; most values in the screen are far below 50% and negative numbers occur (in some assays of this library far below -100). Compounds were drawn at random from those tested, without regard to their results. A dash means the value is not listed here; it may have been measured.

compound | ClpP1P2 | Leishmania in macrophages | Pks13 thioesterase | PfKRS1 | Toxoplasma
CC(C)n1cc(CN(C)C[C@@H]2CCCN3CCCC[C@H]23)cn1 | -8.444 | - | -24.72 | 3.227 | -
CS(=O)(=O)NCC1CCCCN1C(=O)c1cccc(C(F)(F)F)c1 (stereo unspecified) | -18.26 | 9.701 | -18.79 | -0.1013 | -5.95
O=C(c1ccco1)N1CC[C@H]2[C@H]1CCN2S(=O)(=O)C1CC1 | -5.245 | - | -24.57 | 3.194 | -
CCCn1ccnc1CN1CCC(O)(CN2CCCCC2)C1 (stereo unspecified) | -0.3243 | 16 | -33.2 | 7.825 | 10.71
O=c1[nH]c(N2CCN(C3CC3)CC2)nc2c1cnn2-c1ccccc1 | 14.08 | 0.07603 | -19.88 | 2.085 | 4.797
O=C(c1cccnc1O)N1CCCN(c2cccnn2)CC1 | -5.98 | 3.038 | -13.64 | 1.54 | -3.937
Cc1nc(COC[C@@H]2CC[C@H]3[C@H](CCN3S(C)(=O)=O)O2)cs1 | -2.056 | - | -32.63 | 0.4541 | -
Cc1ccc(-c2ncc(C(=O)NCCS(N)(=O)=O)s2)c(C)c1 | -3.617 | -13.65 | 46.35 | 0.5539 | -0.8616
CCC(=O)NC(C)c1ccccc1C (stereo unspecified) | -11.33 | 26.37 | -5.759 | 4.127 | 18.51
CSCC(=O)NC(Cc1ccc(C)cc1)c1ccccn1 (stereo unspecified) | -12.27 | 39 | -9.005 | 6.477 | 8.462
O=C(CCc1nc2cccnc2[nH]1)NCc1ccncc1 | -4.257 | 2.348 | -19.24 | 1.576 | -4.427
O=C(O)CC[C@@H]1CN(c2ccncc2)CC[C@@H]1N1CCOCC1 | -4.166 | 12.94 | -17.35 | 0.02376 | -8.862
COc1c(CNC2CCCc3ccccc32)c(C)nn1C (stereo unspecified) | -0.3088 | 41.93 | -9.983 | 3.101 | 3.881
CC(Oc1ccc2c(c1)OCO2)C(=O)N1CCC(N2CCCC2)CC1 (stereo unspecified) | -15.46 | 30.73 | 11.17 | -6.364 | -6.872
CCCS(=O)(=O)N1CCC2(CCC(=O)N(CCc3cccnc3)C2)CC1 | -8.716 | 2.145 | 6.941 | 3.878 | -14.39
C[C@@H]1C[C@H]2CN(C(=O)c3cccc4c3OCCO4)C[C@H]2O1 | -2.669 | - | -28.41 | 1.461 | -
CCOCC(O)CN1CCN(C(=O)c2cccc(F)c2)CC1 (stereo unspecified) | -5.584 | 8.171 | -8.891 | -3.793 | 0.4616
CC(C)(C)OC(=O)N1CCN(S(=O)(=O)CCCC#N)C2(CCCCC2)C1 | -7.619 | 52.1 | 5.886 | -1.922 | -20.34
COc1ccc(N2CCC(N(C)C(=O)C(C)SC)CC2)cc1 (stereo unspecified) | 1.421 | -76.01 | 6.89 | 8.13 | -7.747
O=C(O)C(F)(F)F.O=C(O)C(F)(F)F.[H][C@]12CCN(c3ccc(C)nn3)[C@@]1([H])CC[C@H](COCc1cccnc1)O2 | - | -9.892 | - | - | -1.652
O=C(CCc1ccc(O)cc1)N1CCC(Cc2ccc(CO)cc2)C1 (stereo unspecified) | -0.004405 | 14.79 | -2.265 | 11.15 | -8.316
CC(C)N1CCC(CC(=O)N2CCCCC2CCn2cccn2)CC1 (stereo unspecified) | 6.33 | 39.38 | -45.73 | 1.73 | 2.434
Cc1nn(C)c(C)c1C(=O)NC(C)CC(=O)c1cccs1 (stereo unspecified) | -0.4833 | 0.1526 | 0.2109 | -0.2465 | 0.7318
CC(C)(C)c1c[nH]c([C@@H]2COCCN2C2CCCCC2)n1 | 1.387 | 7.741 | -17.82 | 3.354 | -1.934
O=C(C1CCCc2[nH]ncc21)N1CCCCCC1 (stereo unspecified) | 9.035 | -3.562 | -21.08 | 5.235 | -0.05316
Cc1cccc(C(=O)N2C[C@@H]3[C@H](CC(=O)Nc4cccnc4)[C@@H]3C2)n1 | -5.637 | - | -16.32 | 0.6883 | -
COc1ccc(CN2C[C@@H]3CN(Cc4ccoc4)C[C@@H]3C2=O)cc1 | -7.534 | - | -25.76 | 6.172 | -
O=C(Cn1nc2ccccc2n1)N1CCCC(O)(CO)C1 (stereo unspecified) | 11.4 | 4.282 | -9.243 | 7.068 | 8.024
CCN1CCCC(O)(c2nc(C)c(CCOc3ccc(F)cc3)s2)CC1 (stereo unspecified) | 10.63 | 11.02 | -24.48 | 0.623 | 19.26
CC(C)N(Cc1c[nH]nc1-c1ccc2c(c1)OCO2)Cc1nccn1C | 0.7798 | 19.33 | -34.19 | 3.471 | 3.236
CC(=O)c1c(F)cccc1N1CCC(NS(=O)(=O)c2ccccc2)CC1 | 4.306 | 3.928 | -17.74 | 3.939 | 18.63
CN(Cc1ccc2c(c1)OCO2)C(=O)C1CC(c2cccc(F)c2)=NO1 (stereo unspecified) | -17.65 | 8.273 | -14.67 | 2.85 | 6.809
Cc1cnn(C2CCCN(C(=O)c3cn4ccccc4n3)C2)c1 (stereo unspecified) | -11.62 | -3.479 | -19.81 | -4.394 | -2.859
O=C(Cc1ccccn1)N1CCC2(CC1)CN(c1ncccn1)CCO2.O=C(O)C(F)(F)F.O=C(O)C(F)(F)F | - | 12.21 | - | - | 3.542
COc1cccc(N2CCN(C(=O)C(C)Oc3ccccc3)CC2=O)c1 (stereo unspecified) | -6.526 | -9.34 | -5.21 | 1.853 | 0.8979
O=C(c1cscn1)N1CCN2C[C@H](OCc3cccnc3)C[C@H]2C1 | 12.53 | - | -20.88 | -2.133 | -
CCOC(=O)N1CCN(c2nc(C)ncc2CC)CC1 | 16.69 | -39.23 | -0.2927 | -1.258 | -4.707
CN(Cc1cccc(C#N)c1)S(=O)(=O)N1CCOCC1 | -6.05 | 12.25 | 0.252 | 0.5727 | -5.275
O=C1C(Sc2nc(=O)ccn2C2CC2)CCN1c1ccccc1F (stereo unspecified) | -11.37 | 4.57 | -7.301 | 2.186 | -0.9841
Cc1cnn(C2CCCN(C(=O)Cc3c(C)nn(C)c3C)C2)c1 (stereo unspecified) | -33.05 | 10.8 | -18.61 | 1.925 | -25.78
CCOCC1CN(c2ccncn2)Cc2cnn(CC3CC3)c21 (stereo unspecified) | 7.615 | - | 2.866 | 8.478 | -
CC(=O)N(Cc1noc(C2CC2)n1)C1CCN(Cc2ccccc2)C1 (stereo unspecified) | -12.39 | 33 | -1.658 | 1.168 | 1.373
COc1ccc(F)cc1C(C)NC(=O)Nc1nnc(C)s1 (stereo unspecified) | 1.025 | 13.18 | -27.31 | 5.28 | 3.03
O=C(c1cscn1)N1CC[C@H]2[C@@H]1CCC(=O)N2c1ccccc1 | 17.1 | - | -9.462 | -0.07678 | -
CNC(=O)c1ccc2c(OC)n(C)nc2c1 | -32.13 | -9.377 | 15.53 | 3.633 | -1.416
COc1ccc(CNC(=O)NCC(=O)NC2CC2)c(C(F)(F)F)c1 | -9.13 | -45.84 | -15.16 | 2.21 | 18.27
CN1CC(=O)N(c2ccccc2)CC12CCN(C(=O)c1cnccn1)C2 (stereo unspecified) | -13.13 | - | -42.51 | 0.5897 | -
O=C(O)C(F)(F)F.[H][C@@]12C[C@@H](C(=O)Nc3cnccn3)CN(Cc3ccsc3)[C@]1([H])CCO2 | - | 17.29 | - | - | 1.13
COc1ccc(N2CCN(C(=O)c3nc(Cl)sc3C(C)C)CC2)cc1 | -10.27 | 21.43 | 9.393 | 5.901 | -8.411
CN(c1ncnc2sccc12)C1CCCN(c2cccnn2)C1 (stereo unspecified) | -8.787 | -18.31 | -11.86 | 1.707 | 20.65
CCN1C[C@@H]2[C@@H](OC)CCN(C(=O)c3cc(C)nn3CC)[C@@H]2C1 | -1.391 | - | 14.44 | -3.222 | -